Mtb heat-shock: 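Assay on Mycobacterium tuberculosis, filed only as a heat shock assay from Cornell; the read-out is not stated. The concentration is filed as 10 mM, unlikely as a test dose, so the dose is not known. Higher reads as stronger inhibition (inferred: compounds with an IC50 in retests scored well above the rest). Size under these conditions: about 69,000 compounds, about 930 of them at 50% or above in at least one test.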
LdMetRS: 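Primary screen of methionyl-tRNA synthetase; the read-out is not stated. Target: Methionyl-tRNA synthetase (putative), Leishmania donovani (UniProt E9BF75). The test concentration is not given. The values are filed as inhibition. About 68,000 compounds were tested under these conditions; 0.035% (about 24) showed 50% or more at least once.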
Mtb growth Cornell: 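Whole-cell assay for inhibitors of Mycobacterium tuberculosis growth, labelled Cornell in the record; the read-out is not stated. The concentration is filed as 10 mM, unlikely as a test dose, so the dose is not known. Higher means stronger inhibition (inferred from two other growth screens of the library). Size under these conditions: about 53,000 compounds, about 900 of them at 50% or above in at least one test.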

Amino acid sequences for entries named in this document (tags omitted).
UniProt E9BF75, entry or part of it: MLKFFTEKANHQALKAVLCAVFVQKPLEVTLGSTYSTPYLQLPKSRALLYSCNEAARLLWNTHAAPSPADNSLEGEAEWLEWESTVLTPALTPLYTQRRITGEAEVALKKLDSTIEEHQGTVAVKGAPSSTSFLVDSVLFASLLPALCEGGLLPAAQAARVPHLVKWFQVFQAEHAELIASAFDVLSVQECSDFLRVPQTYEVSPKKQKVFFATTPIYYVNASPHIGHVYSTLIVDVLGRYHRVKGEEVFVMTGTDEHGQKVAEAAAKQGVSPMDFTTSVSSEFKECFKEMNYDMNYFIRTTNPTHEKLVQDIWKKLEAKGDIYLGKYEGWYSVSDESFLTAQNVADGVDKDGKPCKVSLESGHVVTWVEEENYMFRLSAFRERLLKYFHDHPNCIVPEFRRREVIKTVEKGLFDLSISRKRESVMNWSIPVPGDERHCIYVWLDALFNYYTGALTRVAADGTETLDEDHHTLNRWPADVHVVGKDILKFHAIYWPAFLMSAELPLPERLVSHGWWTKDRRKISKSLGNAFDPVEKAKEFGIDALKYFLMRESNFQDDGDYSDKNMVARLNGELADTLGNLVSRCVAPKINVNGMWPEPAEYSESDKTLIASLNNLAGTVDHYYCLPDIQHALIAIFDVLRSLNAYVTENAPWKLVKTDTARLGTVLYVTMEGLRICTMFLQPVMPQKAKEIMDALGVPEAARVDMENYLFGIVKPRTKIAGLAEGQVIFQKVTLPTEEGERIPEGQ

Results are percentages, as filed.
The controls that fix the scale are not given in the record; negative values are as filed.
This is an unselected part of the compounds tested.
A dash means the value is not listed here; it may have been measured.

SMILES	Mtb heat-shock	LdMetRS	Mtb growth Cornell
CCCc1cc(NC2CCc3nc(C(C)C)nn3C2)n2ncnc2n1 (stereo not drawn)	-38.92	21.56	22.44
Cc1noc(C(C)N2CCN(CC(=O)N3CCOCC3)CC2)n1 (stereo not drawn)	-2.502	7.042	-22.01
Cc1nn(C)c(N(C)C)c1CNCC(O)c1ccccc1 (stereo not drawn)	-6.618	10.34	-2.094
Cc1nc(C)n(CC2CCCCN2CC(=O)N(C)Cc2ccco2)n1 (stereo not drawn)	3.689	2.083	-
CCN(CC)Cc1cn2c(n1)CN(Cc1c(C)noc1C)CC2	-	4.396	-
CN(c1ccc(CNc2c(Cl)cccc2C#N)cc1)S(C)(=O)=O	-11.88	12.05	12.08
CN(CC(=O)NC1CC1)C(=O)c1csc(Br)c1	7.996	8.393	25.78
CC(C)c1noc(CCC(=O)Nc2cc(C(F)(F)F)c[nH]c2=O)n1	-17.92	8.798	15.41
CCNc1ncc(C(=O)NCc2ccc3nsnc3c2)cn1	2.406	0.9174	105.6
Cc1cc(C(=O)N2C[C@H]3CC[C@@H]2CN(Cc2ccccn2)C3)nc(N)n1	-	0.3472	-
CC(C)Oc1ncccc1CNC(=O)c1ccco1	0.6629	16.08	-
CCOC(=O)[C@]12CCCN(Cc3nccs3)C[C@H]1CN(C(C)C)C2	-	4.255	-
CC(C)c1cc(NCC(O)c2ccncc2)n2nccc2n1 (stereo not drawn)	0.8571	4.27	-
Cc1ccc(-c2ccnc(N3CCC4(CC3)CNC(=O)O4)n2)c(C)n1	-6.571	11.68	18.4
Cc1cc(NC(=O)Cn2ccccc2=O)n(C)n1	6.696	12.43	-
Cc1cc(C(=O)N(CC2CCCO2)c2ccncc2)c(C)o1 (stereo not drawn)	-10.54	8.527	42.55
Cn1cccc1C(=O)NCc1cnc2n1CCN(CC1CC1)C2	-	6.667	-
Cl.Nc1cnn(CC(=O)N2CCCCC2)c1	-8.542	-	-6.936
CSCc1cccc(S(=O)(=O)N2CCSCC2)c1	0.6253	11.2	-
COCCOc1ncccc1CNC(=O)N1CCOCC1	0.425	11.87	15.36
Cc1ccn2c(F)c(C(=O)N3CCC4(CCCN(C)C4=O)C3)nc2c1 (stereo not drawn)	-0.7183	19.24	22.95
NC(=O)C1CCCN(C(=O)c2cnc3c(cnn3C3CCCC3)c2)C1 (stereo not drawn)	-13.73	4.225	-27.76
N#CCCN(Cc1ccco1)C(=O)COC1CCCCC1	-41.55	6.516	-4.452
Cc1cccnc1NC(=O)C1CSc2ncc(C)c(=O)n2C1 (stereo not drawn)	-7.923	15.8	16.49
CCn1nc(C)cc1C(=O)N1C[C@@H]2C[C@@H](c3nnc(C)[nH]3)O[C@@H]2C1	-	2.747	-
CN(C)C(=O)CN1C(=O)[C@H]2CC[C@@H]1CN(Cc1ccccc1C#N)C2	-	17.39	-
Cc1ccc(C(=O)Nc2c(C(=O)N(C)C)nn(C)c2C)cc1	-14.21	25.88	-
CCCc1[nH]n(C)c(=N)c1-c1ccc2c(c1)OCO2	-12.97	17.79	17.04
Cc1ccc(-c2noc([C@H](N)CC(C)C)n2)nn1	32.77	3.373	7.267
COCCN1CCN(Cc2cccc(C(N)=O)c2)CC1C (stereo not drawn)	-26.51	5.594	-
Cc1nc(CC2CCN(Cc3ccc(CCC(C)(C)O)cc3)CC2)no1	-8.02	4.478	-11.01
CNC(=O)Cc1n[nH]c(-c2cncc(Br)c2)n1	-11.95	9.677	-40.5
OC1(CN2CCCC2)CCCN(Cc2cnc(-c3ccco3)nc2)C1 (stereo not drawn)	-4.777	14.03	24.51
Nc1ccc(-c2cc(O)cc(CCC3CCCCN3)c2)cn1 (stereo not drawn)	-18.83	11.2	-
COC(=O)CC(c1ccc(OC)c(OC)c1OC)c1c(O)n[nH]c1C (stereo not drawn)	-5.138	9.115	39.76
NC(=O)CS(=O)(=O)Cc1cc(Cl)c2c(c1)OCCCO2	-19.66	5.915	-
CCN(C)c1ccc(C(=O)N(CCOC)Cc2ccccn2)cc1	-22	8.78	-3.866
CCc1nc(N2CCCC(CCCOC)(C(=O)O)C2)ncc1C (stereo not drawn)	-8.574	13.54	-0.2314
O=C1CC(c2ccncc2)C2(CCN(C(=O)c3cccc(F)c3)CC2)N1 (stereo not drawn)	-	16.83	-
CC(C)c1nccc(CN2CCCC(O)(CN(C)C)C2)n1 (stereo not drawn)	8.645	7.161	-39.14
CCC(NC(=O)NCC(=O)NC(C)C)c1cc(F)ccc1F (stereo not drawn)	5.004	11.04	5.032
CNC(=O)C(C)(C)N1CCC[C@H]1C(=O)NC1CCCC1	-19.09	-8.242	-
CC(C)C(O)C(C)(C)CNC(=O)NCc1ccc(-n2cncn2)cc1 (stereo not drawn)	15.19	4.982	-
Cn1cc([C@@H]2CN(S(C)(=O)=O)C[C@H]2N)c2ccncc21	-	9.627	-
CCOC[C@@H]1CC[C@H]2[C@H](CCN2Cc2c(C)noc2C)O1	-	17.92	-
CCn1cc(CN2CCCN(C3Cc4ccccc4C3)CC2)c(C)n1	8.186	17.35	-23.09
O=C(CC1CCCN1S(=O)(=O)N1CCCCC1)c1cccs1 (stereo not drawn)	-13.75	7.023	29
CO[C@@H]1CC[C@H]2[C@H]1OCCN2C(=O)C1=CCCC1	-	16.67	-
Cc1nnsc1C(=O)NCc1cccnc1N1CCc2ccccc2C1	-16.23	6.859	10.98
COc1cc(C(C)=O)ccc1OCC(=O)c1cccn1C	-7.339	10.03	-30.49
Cc1n[nH]c(CN2CCN(CC3CC3)[C@@H]3CS(=O)(=O)C[C@@H]32)n1	-	3.093	-
CCN(CC1CCOC1)C(=O)c1ccccc1N1CCOCC1 (stereo not drawn)	3.511	9.449	-6.384
CSc1ncc(C(=O)N2CCC(O)(CN3CCOCC3)C(C)(C)C2)cn1 (stereo not drawn)	-26.69	11.45	36.98
CC(C)c1nc(C2CCCN2CCN2CCCCC2)no1 (stereo not drawn)	-31.85	7.43	0.6555
Cc1nc(C2CCNC2)nc2c1CCC(=O)N2C.Cl (stereo not drawn)	7.271	-	17.49

The last 5 entries again:

SMILES,Mtb heat-shock,LdMetRS,Mtb growth Cornell
Cc1n[nH]c(CN2CCN(CC3CC3)[C@@H]3CS(=O)(=O)C[C@@H]32)n1,-,3.093,-
CCN(CC1CCOC1)C(=O)c1ccccc1N1CCOCC1 (stereo not drawn),3.511,9.449,-6.384
CSc1ncc(C(=O)N2CCC(O)(CN3CCOCC3)C(C)(C)C2)cn1 (stereo not drawn),-26.69,11.45,36.98
CC(C)c1nc(C2CCCN2CCN2CCCCC2)no1 (stereo not drawn),-31.85,7.43,0.6555
Cc1nc(C2CCNC2)nc2c1CCC(=O)N2C.Cl (stereo not drawn),7.271,-,17.49

Data taken from ChEMBL document CHEMBL3988442, “University of Dundee, Small-Polar-MMV Screening Library” (2021).